Results published in PubChem BioAssay AID1671190 (National Center for Advancing Translational Sciences (NCATS), 2021).
Values joined by “and” are separate entries in the source; they are usually repeats but may differ in a detail not shown here. Identical values can stand only once. In all, about 580,000 compounds went through this assay and about 6,100 (1.1%) were called active. Inconclusive results, whose numbers are uncertain, are shown with a selection of clear calls. Calls follow the shape of the dose curve; as a rule, active = well fitted inhibition curve with a large enough effect; inconclusive = small, poorly fitted or top-dose-only effect, or another doubt; inactive = no such curve, though single readings can be large or run the other way. Where the call is inconclusive, the potency comes from a doubtful curve fit.

The chains behind the UniProt entries cited, without tags or fusion partners. Where a name states a change or a piece, a line headed by the entry shows the natural chain unless it says otherwise.
UniProt P18054: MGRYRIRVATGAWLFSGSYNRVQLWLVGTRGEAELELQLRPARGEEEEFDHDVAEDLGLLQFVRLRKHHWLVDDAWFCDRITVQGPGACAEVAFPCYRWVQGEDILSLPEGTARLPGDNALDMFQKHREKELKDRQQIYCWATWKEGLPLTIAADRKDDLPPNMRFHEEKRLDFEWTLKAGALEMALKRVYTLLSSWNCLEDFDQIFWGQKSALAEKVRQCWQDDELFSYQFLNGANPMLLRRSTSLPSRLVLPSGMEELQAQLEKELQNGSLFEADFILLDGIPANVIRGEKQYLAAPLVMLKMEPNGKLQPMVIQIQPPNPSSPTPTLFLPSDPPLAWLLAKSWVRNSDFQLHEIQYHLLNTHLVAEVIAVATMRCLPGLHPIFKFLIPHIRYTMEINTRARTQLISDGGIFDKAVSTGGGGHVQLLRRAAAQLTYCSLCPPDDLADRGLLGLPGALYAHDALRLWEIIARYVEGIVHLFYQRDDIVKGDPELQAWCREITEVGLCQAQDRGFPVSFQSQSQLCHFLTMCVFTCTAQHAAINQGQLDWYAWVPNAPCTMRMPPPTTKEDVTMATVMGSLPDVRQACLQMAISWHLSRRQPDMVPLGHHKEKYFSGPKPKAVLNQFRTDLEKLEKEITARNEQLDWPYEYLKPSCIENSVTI

Each molecule was assayed against Polyunsaturated fatty acid lipoxygenase ALOX12 (Homo sapiens) (UniProt P18054) (assay: Primary qHTS assay for inhibitors of human arachidonate 12S-lipoxygenase (ALOX12): Round 2). Conditions: purified 12hLO, xylenol orange hydroperoxide absorbance; activity change, negative = inhibition: at 108 µM (top of the series) unless noted.
In short: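 Purified human 12hLO at 150 nM in 25 mM Hepes, 0.01% Triton X-100, pH 7.0, preincubated 15 min at room temperature with compound. Reaction started with 40 uM arachidonic acid, 30 min at room temperature. Hydroperoxide measured by Fe-xylenol orange, 573/405 nm absorbance ratio.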
% is scaled to controls: 0 for no effect and ±100 for the full control effect; potency is read from the fitted curve at half-maximal effect.

| SMILES | activity change, negative = inhibition | Potency |
| --- | --- | --- |
| O=C1C2C3C=CC(CC3)C2C(=O)N1c1ccc(Cl)cc1 (stereo not drawn) | inactive: 16.5% | – |
| CCN(CC)c1ccc(C2CC(=O)Nc3cc(OC)c(OC)cc32)cc1 (stereo not drawn) | – | inconclusive: 56.2 µM [inhibitor, partial curve, poor fit] |
| O=c1cc(-c2ccccc2Cl)oc2c(NS(=O)(=O)c3ccccc3OC(F)(F)F)ccc(O)c12 | – | inconclusive: 2.51 µM [inhibitor, full curve, poor fit] |
| CCOC(=O)c1sc(NC(=O)Nc2cccc(Cl)c2)cc1C | inactive: -15.9% | – |
| CNCCCC1Sc2ccccc2Oc2ccccc21 (stereo not drawn) | – | inconclusive: 0.224 µM [inhibitor, full curve, poor fit] |
| COc1cc(OC)c(OC)cc1CNC1CCCCCC1 | – | inconclusive: 0.891 µM [inhibitor, full curve, poor fit] |
| COc1ccc(CN(CC(=O)NCC2CCCO2)C(=O)CCC(=O)Nc2nccs2)cc1 (stereo not drawn) | – | inconclusive: 44.7 µM [inhibitor, partial curve, poor fit] |
| CCN1CCN(Cc2c3ccccc3cc3ccccc23)CC1 | – | inconclusive: 25.1 µM [inhibitor, partial curve, poor fit] |
| C=CCNC(=O)NC(=O)CN(C)CC(=O)Nc1ccccc1C(F)(F)F | inactive: 11.8% | – |
| CC1CCc2nc3ccc(S(=O)(=O)N4CCC(C(=O)NCc5ccccc5Cl)CC4)cc3c(C(=O)O)c2C1 (stereo not drawn) | – | inconclusive: 63.1 µM [inhibitor, partial curve, poor fit] and inconclusive: 7.94 µM [inhibitor, partial curve, poor fit] |
| CC1CCCC(C)N1C(=O)CN1C(=O)c2ccccc2S1(=O)=O (stereo not drawn) | – | inconclusive: 28.2 µM [inhibitor, single point] |
| Cc1cc(SCC(=O)NC(N)=O)nc2ccccc12 | inactive: -2.46% | – |
| Cn1c(=O)c2c(nc(Cl)n2CC(=O)NCC23CC4CC(CC(C4)C2)C3)n(C)c1=O | inactive: 12.9% | – |
| Cc1ccc2c(CC(=O)Nc3ccc(S(=O)(=O)N4CCC(C)CC4)cc3)coc2c1 | inactive: -0.015% | – |
| CCCCc1ccc(NC(=O)CSc2nc(=O)n(CCN(CC)CC)c3c2CCC3)cc1 | – | inconclusive: 39.8 µM [inhibitor, partial curve, poor fit] |
| Cn1c(=O)c2c(ncn2CC(=O)OCCCC(=O)c2ccc(Br)cc2)n(C)c1=O | inactive: 1.56% | – |
| O=C(NCCCN1CCOCC1)c1ccc(Sc2ccccc2Cl)c([N+](=O)[O-])c1 | – | inconclusive: 50.1 µM [inhibitor, partial curve, poor fit] |
| COc1ccccc1N1C(=O)C2CC=CC(C)C2C1=O (stereo not drawn) | inactive: 0% | – |
| Cc1[nH]n(-c2cccc(Cl)c2)c(=O)c1/C=N/n1c(C)nc2ccccc2c1=O | – | inconclusive: 28.2 µM [inhibitor, partial curve] |
| COc1ccc(NC(=O)c2cc(S(=O)(=O)N(C)C)ccc2N2CCCC2)cc1Cl | – | inconclusive: 2.51 µM [inhibitor, full curve, poor fit] |
| COc1cccc(C(=O)CSc2nnc(CNS(C)(=O)=O)n2-c2ccc(C)cc2)c1 | – | inconclusive: 31.6 µM [inhibitor, partial curve, poor fit] |
| CN(Cc1nc2ccc(F)cc2[nH]1)C(=O)C1CCC(=O)N(C2CC2)C1 (stereo not drawn) | – | inconclusive: 35.5 µM [inhibitor, partial curve, poor fit] |

| SMILES | activity change, negative = inhibition | Potency |
| --- | --- | --- |
| COc1ccc(C)cc1N=Nc1ccc(O)c2ncccc12 | – | inconclusive: 7.08 µM [inhibitor, full curve] |
| CCOc1ccccc1NC(=O)C1CC(=O)Nc2nc3ccccc3n21 (stereo not drawn) | – | inconclusive: 141 µM [inhibitor, single point] |
| N[C@@H](CCCCNC(=O)CCCC[C@@H]1SC[C@H]2NC(=O)N[C@H]12)C(=O)O | – | inconclusive: 5.62 µM [inhibitor, full curve, poor fit] |
| Cc1ccc(/C=C/C(=O)N2CCc3ccccc32)o1 | – | inconclusive: 44.7 µM [inhibitor, partial curve] |
| CC(C)(C)[C@@H]1CCC(=O)N(CC[C@H](Sc2ccc(Br)cc2)c2ccccc2)CC1 | – | inconclusive: 112 µM [inhibitor, single point] |
| CC(=O)Nc1ccc(NC(=O)Nc2cccc(Cl)c2)cc1 | inactive: 8.03% | – |
| Cc1cc(C)c(C(=O)COC(=O)/C=C/c2cccs2)c(C)c1 | – | inconclusive: 35.5 µM [inhibitor, partial curve, poor fit] |
| CC(=O)c1c(C)nc2ccccc2c1C | – | inconclusive: 2.51 µM [inhibitor, full curve] |
| O=C(CCc1ncc(-c2ccc(F)cc2F)o1)Nc1ccncc1 | inactive: 12.9% | – |
| Cc1cc(C(=O)N2CCN(S(=O)(=O)c3ccc(F)cc3F)CC2)c(C)n1Cc1ccco1 | – | inconclusive: 22.4 µM [inhibitor, partial curve, poor fit] |
| CCCCCOc1ccc(/C=C/c2c([N+](=O)[O-])c(=O)n(C)c(=O)n2C)cc1 | inactive: -0.784% | – |
| CCOc1ccc(CNc2cccc(SC)c2)cc1 | inactive: -20.6% | – |
| CC(C)(C)C1CCc2[nH]nc(C(=O)O)c2C1 (stereo not drawn) | – | inconclusive: 2.51 µM [inhibitor, partial curve, poor fit] |
| CSC1=NC2(CCCCC2)C2=C(CCCC2)N1 | – | inconclusive: 20 µM [inhibitor, partial curve, poor fit] |
| COc1ccccc1N1CCN(c2nc(C)c3c(n2)CC(C)(C)CC3=O)CC1 | inactive: 2.49% | – |
| CC(=O)c1cccc(NC(=S)NC(=O)c2ccc(Br)cc2)c1 | inactive: -25.3% | – |
| CCOc1ccccc1NC(=O)c1ccc2c(c1)C(=O)N(CC(C)C)C2=O | – | inconclusive: 50.1 µM [inhibitor, partial curve, poor fit] |
| Cc1c(C(=O)NCC2COc3ccccc3O2)oc2ccc(S(=O)(=O)N(C)C3CCCCC3)cc12 (stereo not drawn) | – | inconclusive: 0.282 µM [inhibitor, full curve, poor fit] |
| CC1CCN(C(=O)c2cc(-c3ccncc3)nc3ccccc23)CC1 | inactive: -29.6% | – |
| COCc1cc(C)nc(SCC(=O)Nc2ccccc2C)c1C#N | inactive: -5.14% | – |
| COc1ccc(C2C(C(C)=O)=C(O)C(=O)N2c2ccccc2)c(OC)c1 (stereo not drawn) | inactive: -6.66% | – |
